Results from PubChem BioAssay AID623959 (National Center for Advancing Translational Sciences (NCATS), 2012).
The campaign covered roughly 1,400 compounds. Fewer than 10 were called active. Not shown: some 8% with an inconclusive outcome. Calls follow the shape of the dose curve; as a rule, active = well fitted curve in the direction sought with a large enough effect; inconclusive = small, poorly fitted or top-dose-only effect, or another doubt; inactive = no such curve, though single readings can be large or run the other way. Some of the results follow.

Sequences of proteins named here, by UniProt entry; tags and fusion partners are left off.
UniProt Q8NER1, whole entry, looked up: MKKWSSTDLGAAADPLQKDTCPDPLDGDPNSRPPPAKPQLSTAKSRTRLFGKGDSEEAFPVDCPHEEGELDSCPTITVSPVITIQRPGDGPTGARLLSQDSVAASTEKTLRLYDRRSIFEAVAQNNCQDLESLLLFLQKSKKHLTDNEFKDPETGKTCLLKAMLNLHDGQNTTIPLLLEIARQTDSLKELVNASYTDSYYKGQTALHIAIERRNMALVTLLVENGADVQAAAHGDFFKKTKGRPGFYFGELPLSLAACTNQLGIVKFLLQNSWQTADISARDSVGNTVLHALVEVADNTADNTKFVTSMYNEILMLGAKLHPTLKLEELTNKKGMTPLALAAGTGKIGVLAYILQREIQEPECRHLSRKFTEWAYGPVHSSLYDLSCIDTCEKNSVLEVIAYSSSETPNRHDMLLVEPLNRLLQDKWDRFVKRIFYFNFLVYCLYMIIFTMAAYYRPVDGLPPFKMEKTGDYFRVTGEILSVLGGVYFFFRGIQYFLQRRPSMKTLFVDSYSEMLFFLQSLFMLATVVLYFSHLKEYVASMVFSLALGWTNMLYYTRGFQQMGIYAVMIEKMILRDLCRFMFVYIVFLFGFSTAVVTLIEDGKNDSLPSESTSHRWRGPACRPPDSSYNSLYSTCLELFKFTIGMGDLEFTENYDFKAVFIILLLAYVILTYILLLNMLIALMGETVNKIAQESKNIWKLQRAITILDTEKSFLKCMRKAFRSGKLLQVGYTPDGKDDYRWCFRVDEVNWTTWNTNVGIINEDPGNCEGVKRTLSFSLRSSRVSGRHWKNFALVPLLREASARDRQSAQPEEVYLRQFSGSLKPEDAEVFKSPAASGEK

molecular target: Transient receptor potential cation channel subfamily V member 1 (Homo sapiens) (UniProt Q8NER1); experiment: qHTS Assay for Compounds that Act as Potentiators of the Vanilloid Receptor 1: Hit Validation; conditions: TRPV1-expressing cells, Fluo-8 calcium influx, capsaicin EC20; series mostly up to 42.1 µM; activity change, positive = potentiation: at the top concentration; as to activity change, positive = potentiation: % of control where 0% means no effect
Procedure, shortened: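 TRPV1 cells (2000/well, overnight 35.5 °C) loaded with Fluo-8 calcium dye 40–90 min at room temperature. FDSS fluorescence (ex 480/em 520 nm) read 3 min after compound, then 2 min after capsaicin at EC20.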
Potency is read from the fitted curve at half-maximal effect.

Compound | activity change, positive = potentiation | Potency
Cc1nn(Cc2ccc(Cl)cc2)c(C)c1NC(=O)CCCn1nc(C)c([N+](=O)[O-])c1C | inactive: -16% | 
CC(=O)N1CCN(c2ccc(NC(=O)C(c3ccccc3)c3ccccc3)cc2)CC1 | inactive: -5.18% | 
COc1ccc(C2=NCCn3nc4ccccc4c32)cc1 | inactive: 5.29% | 
COc1cc(C)nc(-c2csc(C)n2)n1 | inactive: 7.2% | 
O=C1Cc2cc([N+](=O)[O-])ccc2N1c1c(Cl)cccc1Cl | inactive: -2.88% | 
Cn1c(SCC(=O)Nc2cccc3ccccc23)nc(O)cc1=O | inactive: -1.99% | 
CCCNc1nc(=S)n(-c2ccccc2)c(C)c1C(C)=O | inactive: 35% | 
Cc1[nH]nc(SCC(=O)N2CCOCC2)c1[N+](=O)[O-] | inactive: -5.31% | 
c1ccc(NC(c2ccccc2)c2ccncc2)cc1 (centres undefined) | inactive: 4.64% | 
O=C(O)c1coc2ccccc12 | inactive: -8.38% | 
CN(C)C=NC(=O)c1cc(C(=O)c2ccc(Cl)cc2)c[nH]1 | inactive: -8.73% | 
Cc1ccccc1N(CC(=O)NC1CCCCC1)C(=O)CNC(=O)c1cccs1 | inactive: -3.74% | 
CCO[C@H]1OC(C(=O)NC2CC2)=C[C@@H](c2ccccc2)[C@@H]1CCCO | inactive: -2.83% | 
CCc1ccccc1NC(=O)CCC(=O)c1cccs1 | inactive: 0.167% | 
OC(COc1ccc(OCC(O)CN2CCCCC2)cc1)CN1CCCCC1 (centres undefined) | inactive: -2.3% | 
Cc1c(C(C)NC(=O)c2ccc3nc(Cc4ccccc4F)oc3c2)cnn1C (centres undefined) | inactive: -6.76% | 
CCCCSCCCNC(=O)Nc1cccc(OC)c1 | inactive: -21.8% | 
Cc1ccnc(SC2CC(=O)N(c3ccc(Br)cc3)C2=O)n1 (centres undefined) | inactive: 2.52% | 
Cc1cc(Cl)ccc1NNC(=O)c1c(C)noc1C | inactive: -1.73% | 
O=S(=O)(c1ccc(Oc2ccc(S(=O)(=O)N(CCO)CCO)cc2)cc1)N(CCO)CCO | inactive: -5.71% | 
O=c1c2ccccc2[nH]c(=S)n1CCCN1CCN(c2ccccc2)CC1 | inactive: 9.01% | 
O=C(N/N=C/c1c[nH]c2ccccc12)c1cc(-c2ccc3ccccc3c2)n[nH]1 | inactive: -9.22% | 

Compound | activity change, positive = potentiation | Potency
COC(=O)CC1C(=O)NCCN1C(=O)Nc1ccc(Cl)c(Cl)c1 (centres undefined) | inactive: -12.3% | 
Cc1cccn2c(CN3CCCN(C=O)CC3)c(C(=O)N(C)CCc3ccccc3)nc12 | inactive: -2.2% | 
CN(C)CCCN(Cc1ccc2c(c1)OCO2)C(=O)NC1CCCCC1 | inactive: -6.9% | 
CCNC(=O)COc1ccc(/C=C2\COc3ccccc3C2=O)cc1OC | inactive: -4.64% | 
O=C(NCc1ccc2c(c1)OCO2)c1c(Cl)cccc1Cl | inactive: 1.53% | 
COc1cc(/C=N\NC(=O)C2COc3ccccc3O2)cc(OC)c1O (centres undefined) | inactive: -36.2% | 
COc1ccccc1C/C(N)=N/OC(=O)COc1cccc(C)c1C | inactive: -6.5% | 
CCCCCCC(=O)Nc1ccc(C(=O)N/N=C/c2cccnc2)cc1 | inactive: -39.2% | 
CC(C)c1ccc(NC(=O)N2CCOCC2)cc1 | inactive: -39% | 
COc1ccc(NC(=O)C2CCCN(c3nccc(C)n3)C2)cc1 (centres undefined) | inactive: -4.95% | 
N#Cc1ncc(C(F)(F)F)cc1Sc1ccc(N)cc1 | inactive: -1.41% | 
CC(OC(=O)Cc1n[nH]c(=O)c2ccccc12)C(=O)Nc1ccc(F)cc1 (centres undefined) | inactive: 11.3% | 
O=C(O)CN1C(=O)/C(=C\c2ccc(OC(=O)c3ccco3)cc2)SC1=S | inactive: 11.4% | 
CCN(C(=O)COC(=O)c1cncc(Br)c1)C1CCS(=O)(=O)C1 (centres undefined) | inactive: 15.8% | 
O=C(CCS(=O)(=O)c1ccccc1)Nc1nncs1 | inactive: 1.87% | 
O=C(O)c1sccc1S(=O)(=O)N1CCN(c2ccc(C(F)(F)F)cn2)CC1 | inactive: -3.75% | 
Cc1sc2ncnc(OCC(=O)N3CC(=O)Nc4ccccc43)c2c1C | inactive: 2.04% | 
Cn1cccc1C(=O)NC(=O)COC(=O)c1cc([N+](=O)[O-])ccc1Cl | inactive: 8.04% | 
COc1ccc(C(=O)CC(=O)C(=O)Nc2cc([N+](=O)[O-])ccc2OC)cc1 | inactive: -6.17% | 
CCN(CC)CC(C)OC(=O)c1cc(OC)c(OC)c(OC)c1 (centres undefined) | inactive: 4.12% | 
COc1ccc(Nc2nc(NCc3ccco3)nc(N3CCOCC3)n2)cc1 | inactive: -36.9% | 
Cc1ccc(S(=O)(=O)NCCN2CCOCC2)cc1C | inactive: -0.504% | 

Exported with tabs: five of the compounds above.
Compound	activity change, positive = potentiation	Potency
O=C(O)CN1C(=O)/C(=C\c2ccc(OC(=O)c3ccco3)cc2)SC1=S	inactive: 11.4%	
CCN(C(=O)COC(=O)c1cncc(Br)c1)C1CCS(=O)(=O)C1 (centres undefined)	inactive: 15.8%	
O=C(CCS(=O)(=O)c1ccccc1)Nc1nncs1	inactive: 1.87%	
O=C(O)c1sccc1S(=O)(=O)N1CCN(c2ccc(C(F)(F)F)cn2)CC1	inactive: -3.75%	
Cc1sc2ncnc(OCC(=O)N3CC(=O)Nc4ccccc43)c2c1C	inactive: 2.04%	

More structures.

Compound | activity change, positive = potentiation | Potency
Cn1ncc([N+](=O)[O-])c1C(=O)Nc1ccccc1 | inactive: -1.33% | 
NC(=O)c1ccc(-n2nnnc2Oc2ccccc2C(=O)N2CCOCC2)cc1 | inactive: 1.65% | 
O=C(NC(=S)Nc1nc(-c2cccc([N+](=O)[O-])c2)cs1)c1ccccc1Cl | inactive: 3.45% | 
COc1ccc(-[n+]2c(C)cc(/C=C3\Sc4ccccc4N3C)cc2C)cc1 |  | active: 5.7 µM
c1ccc(-c2nnc(CN3CCC4(CC3)OCCO4)o2)cc1 | inactive: -1.85% | 
O=C(CC1CCCC1)N1CCCC(Nc2cccc(F)c2)C1 (centres undefined) | inactive: -38.1% | 
CN(C)C(CNC(=O)CNC(=O)Cc1cccc2ccccc12)c1ccccc1 (centres undefined) | inactive: 1.58% | 
CCCOc1ccc(C2C(C(=O)/C=C/c3ccco3)=C(O)C(=O)N2CCN2CCOCC2)cc1OC (centres undefined) | inactive: -2.86% | 
CCC(=O)NC(c1ccc(OC)cc1)c1cc(Cl)c2cccnc2c1O (centres undefined) | inactive: -0.694% | 
CC(C)(C)c1ccc(C(=O)Nc2ccc(S(N)(=O)=O)cc2)cc1 | inactive: -39% | 
CCc1ccc2oc(C(=O)Nc3cccnc3)c(C)c2c1 | inactive: -35.7% | 
Cc1ccc2nc(NC(=O)CCCc3nc4ccccc4s3)sc2c1 | inactive: 0.136% | 
CCOC(=O)[C@H]1[C@H]2COc3ccc(OC)cc3[C@@H]2N2C(=O)c3cc(C)ccc3NC(=O)[C@@]12C | inactive: -39% | 
COc1ccc(CNC(=S)Nc2cccc(F)c2)cc1 | inactive: -32.8% | 
CS(=O)(=O)c1ccccc1-c1nc(-c2ccc([N+](=O)[O-])cc2)no1 | inactive: -2.72% | 
O=C(O)c1cc(S(=O)(=O)Nc2ccccc2Cc2ccccc2)ccc1Cl | inactive: 7.05% | 
CNC(=O)c1csc(-c2ccc(Cl)cc2)n1 | inactive: -37.6% | 
O=C(CCC(=O)Nc1nnc(C2CCCCC2)s1)NCc1cccs1 | inactive: -4.56% | 
Cc1cc(C)cc(NC(=O)CCn2ccnc2C)c1 | inactive: 0.62% | 
CN(Cc1nc2ccccc2n1C)C(=O)c1ccco1 | inactive: 6.29% | 
CC(C)(C)c1ccc(C(=O)Nc2cccnc2)cc1 | inactive: -39.5% | 
COc1ccc(-n2c(CN3CCN(c4ccc(F)cc4)CC3)nc3ccc([N+](=O)[O-])cc3c2=O)c(OC)c1 | inactive: -3.22% | 

Compound | activity change, positive = potentiation | Potency
CCOC(=O)c1c(N2C(=O)Nc3ccccc3N2O)n[nH]c1-c1cccc(Cl)c1 | inactive: -4.57% | 
CCCCn1c(=O)[nH]c2c(oc3ccccc32)c1=O | inactive: 2.87% | 
Cc1ccc(Nc2ncnc3sc(C)c(C)c23)cc1 | inactive: -39% | 
O=C(CSc1ncccc1-c1nc2ccccc2[nH]1)N1CCc2ccccc21 | inactive: -0.648% | 
CN(Cc1c(O)ccc2c1oc(=O)c1ccccc12)C1CCCCC1 | inactive: -11.4% | 
Cc1ccc(NC(=O)c2cnc3ccccc3n2)cc1C | inactive: -28.6% | 
Cc1cccc(N2CCN(C(=O)NC3CCCCC3)CC2C)c1 (centres undefined) | inactive: -33.8% | 
CCOC(=O)[C@H]1[C@H]2COc3ccc(C)cc3[C@@H]2N2C(=O)c3ccccc3NC(=O)[C@@]12C | inactive: -38.4% | 
COc1cccc(CNC(=S)Nc2cccc(Cl)c2C)c1 | inactive: -38.9% | 
O=C(NCc1ccncc1)C1CCCN(S(=O)(=O)c2cc(Cl)ccc2Cl)C1 (centres undefined) | inactive: -28.8% | 
COc1ccc(Cl)cc1NC(=O)CSc1nc(-c2ccccc2)cc(=O)[nH]1 | inactive: -3.9% | 
CC(=O)Nc1cccc(NC(C)=O)n1 | inactive: -5.38% | 
CC(=O)N1C(C(=O)O)Cc2c([nH]c3ccccc23)C1(C)C (centres undefined) | inactive: -10.9% | 
O=C(NCC1COc2ccccc2O1)c1ccc(Br)s1 (centres undefined) | inactive: -32.3% | 
C=CCOc1ccc(C2C(C(=O)c3ccco3)=C(O)C(=O)N2Cc2cccnc2)cc1 (centres undefined) | inactive: 0.175% | 
CCOc1ccc(NC(=S)NC(=O)Cc2ccccc2)cc1 | inactive: -38.5% | 
COc1ccc(S(=O)(=O)Nc2nc3ccccc3s2)cc1 | inactive: -6.98% | 
COC(=O)[C@@]12CCCN1[C@H](c1ccc(-c3ccc4c(c3)OCO4)c(OC)c1)[C@H]1C(=O)N(C)C(=O)[C@H]12 | inactive: -5.16% | 
Cc1c(N=c2scc(-c3ccccc3)n2C)c(=O)n(-c2ccccc2)n1C | inactive: 4.71% | 
Cc1ccc(S(=O)(=O)NCC(c2cccnc2)N2CCOCC2)cc1 (centres undefined) | inactive: -3.52% | 
O=C(O)CC1(CC(=O)N2CCOCC2)CCCC1 | inactive: -4.21% | 
C/C(=N\NC(=O)c1nnn(-c2nonc2N)c1CN1CCc2ccccc21)c1ccccc1O | inactive: -1.11% | 

Random excerpt: 4 compounds from above.
Compound | activity change, positive = potentiation | Potency
CC(=O)N1C(C(=O)O)Cc2c([nH]c3ccccc23)C1(C)C (centres undefined) | inactive: -10.9% | 
COc1ccc(Cl)cc1NC(=O)CSc1nc(-c2ccccc2)cc(=O)[nH]1 | inactive: -3.9% | 
Cc1ccc(NC(=O)c2cnc3ccccc3n2)cc1C | inactive: -28.6% | 
CN(Cc1c(O)ccc2c1oc(=O)c1ccccc12)C1CCCCC1 | inactive: -11.4% | 

Remaining list, next part.

Compound | activity change, positive = potentiation | Potency
CN(Cc1ccccc1Cl)C(=O)c1cc2ccccc2o1 | inactive: -15% | 
Cc1ccc2oc(=O)c3cnn(CC(=O)N4CCN(c5ccccn5)CC4)c3c2c1 | inactive: -11.8% | 
CN(C(=O)COC(=O)CSc1ccc(C(N)=O)cc1[N+](=O)[O-])C1CCCCC1 | inactive: 4.07% | 
O=C(O)CSc1nc2sc3c(c2c(=O)n1-c1ccccc1)CCC3 | inactive: 5.51% | 
Cc1cc2c(cc1C)NC(c1ccccn1)C1=C(CC(C)(C)CC1=O)N2 (centres undefined) | inactive: -3.59% | 
CCOCc1cc(CN2CCC(CCC(=O)NC3CC3)CC2)ccc1OC | inactive: 2.44% | 
Cc1ccc(C(=O)NC(=S)NNS(=O)(=O)c2ccc(C)cc2)cc1 | inactive: 7.68% | 
CCS(=O)(=O)n1c(Cc2cccs2)nc2ccccc21 | inactive: -8.44% | 
Cc1nn(-c2nnc(C)c(=O)[nH]2)c(C)c1SCC(=O)Nc1ccc(C(C)C)cc1 | inactive: -6.19% | 
O=C(NCc1ccccc1)[C@@H]1C[C@H]1[C@@H](NP(=O)(c1ccccc1)c1ccccc1)c1ccccc1 | inactive: -38.5% | 
COc1cc(/C=N/NC(=S)Nc2cccnc2)cc(OC)c1OC | inactive: -9.74% | 
CC(C)NC(=O)C(C)N1CCN(S(=O)(=O)c2ccc3ccccc3c2)CC1 (centres undefined) | inactive: -6.72% | 
Cc1ncoc1C(=O)Nc1ccc(Oc2ccccc2)cc1 | inactive: -24.3% | 
Cc1ccc(S(=O)(=O)N2[C@@H](c3ccccc3F)C(C(=O)O)=CC[C@H]2c2cccc(C)c2)cc1 | inactive: -4.23% | 
CC(C)C[C@H](NC(=O)c1nc[nH]c1C(=O)N1CCN(c2ccccc2)CC1)C(=O)OC(C)(C)C | inactive: -8.68% | 
Cc1ccc(NC(=O)c2cc3ccccc3o2)cc1 | inactive: 2.85% | 
CCOC(=O)c1sc2nc(CC(=O)OC)nc(N3CCN(c4ccc(OC)cc4)CC3)c2c1C | inactive: -7% | 
CC(C)(C)c1ccc(OCCCC(=O)N2CCOCC2)cc1 | inactive: -39.3% | 
CCCCOc1ccc(C(=O)Nc2ccncc2)cc1 | inactive: -39.1% | 
O=C(O)c1ccc(S(=O)(=O)NC2CCCCCC2)cc1 | inactive: -17.5% | 
COCCn1c(-c2ccc(OC)cc2)cnc1SCC(=O)Nc1cccc2ccccc12 | inactive: -6.92% | 
